Experimental data: patent publication US3966744A, “Spin labeled compounds” (priority 1974, dated 1976)

Tested on: antibody (methadone assay)
Assay type: binding, rabbit
Conditions: 3.1 μg/ml

SMILES: CCC(=O)C(CC(C)N(C)C)(c1ccccc1)c1ccccc1 (stereo not shown) [methadone]
- % Mobilization: 44%
